Measurements published in patent US10208049B2, “Compounds and methods of treating ocular disorders” (Case Western Reserve University, priority 2009, dated 2019).
Some of these results come from one statement about several compounds together. Peptide text beside a SMILES is read from it.

Tested on: RPE cells
Experiment: Viability of RPE cells treated with retinal
Format: cell-based

| Structure (SMILES) | improvement of viability of RPE cells treated with retinal compared to untreated cells |
| --- | --- |
| NCCCNC(=O)c1ccccc1-c1ccccc1C(=O)N(CCC(=O)O)Cc1cc(F)ccc1F [3-[[2-[2-(3-aminopropylcarbamoyl)phenyl]benzoyl]-[(2,5-difluorophenyl)methyl]amino]propanoic acid] | at least 15% |
| Nc1cccc(C(=O)Oc2ccccc2-c2ccccc2OC(=O)c2cccc(N)c2)c1 [[2-[2-(3-aminobenzoyl)oxyphenyl]phenyl] 3-aminobenzoate] | at least 15% |
| Cc1c(CCCN)c2cccc3c2n1CCC3 [5,6-dihydro-2-methyl-4H-pyrrolo[3,2,1-ij]quinoline-1-propanamine] | at least 15% |
| NC1C2C=CC(C2)C1c1ccco1 (stereo not shown) [2-(2-furyl)bicyclo[2.2.1]hept-5-en-3-amine] | at least 15% |
| NCCCS(=O)O [3-aminopropane-1-sulfinic acid] | at least 15% |
| COC(=O)CCCCC(=O)c1ccccc1N [methyl 6-(2-aminophenyl)-6-oxo-hexanoate] | at least 15% |
| CC(C)(C)C(=O)CC(=O)Nc1ccc(Cl)c(N)c1 [N-(3-amino-4-chloro-phenyl)-4,4-dimethyl-3-oxo-pentanamide] | at least 15% |
| CCc1ccc(-c2ncccc2O)cc1N [2-(3-amino-4-ethyl-phenyl)pyridin-3-ol] | at least 15% |
| Nc1ccc(C(=O)NCC(=O)NN2CCOC2=O)cc1 [4-amino-N-[2-oxo-2-[(2-oxooxazolidin-3-yl)amino]ethyl]benzamide] | at least 15% |
| Nc1ccccc1SC(C(=O)Nc1cc(C(F)(F)F)cc(C(F)(F)F)c1)c1ccccc1 (stereo not shown) [2-(2-aminophenyl)sulfanyl-N-[3,5-bis(trifluoromethyl)phenyl]-2-phenyl-acetamide] | at least 15% |
| Nc1ccccc1/C=N/NC(=O)C(=O)Nc1ccc(Cl)c([N+](=O)[O-])c1 [N′-[(E)-(2-aminophenyl)methyleneamino]-N-(4-chloro-3-nitro-phenyl)oxamide] | at least 15% |
| CCOC(=O)c1c(NC(=O)c2ccc(N)c([N+](=O)[O-])c2)sc2c1CCCC2 [ethyl 2-[(4-amino-3-nitro-benzoyl)amino]-4,5,6,7-tetrahydrobenzothiophene-3-carboxylate] | at least 15% |
| Cc1c(Cl)cc(NC(=O)c2cccc(N)c2)c(O)c1Cl [3-amino-N-(3,5-dichloro-2-hydroxy-4-methyl-phenyl)benzamide] | at least 15% |
| CC(c1ccc([N+](=O)[O-])cc1)C(N)C(=O)O (stereo not shown) [2-amino-3-(4-nitrophenyl)butanoic acid] | at least 15% |
| Nc1ccc2ccccc2c1Br [1-bromonaphthalen-2-amine] | at least 15% |
| N=C(N)c1ccc(-c2cccc(N)c2)o1 [5-(3-aminophenyl)furan-2-carboxamidine] | at least 15% |
| Cc1nc2cc(N)ccc2n1C(C)C [1-isopropyl-2-methyl-benzimidazol-5-amine] | at least 15% |
| Cc1ccccc1-n1nc(-c2ccc(N)cc2)cc1N [5-(4-aminophenyl)-2-(o-tolyl)pyrazol-3-amine] | at least 15% |
| CC(C)(N)CNc1nccc(-c2c(-c3ccc(F)cc3)c(=O)n3n2CCC3)n1 [7-[2-[(2-amino-2-methyl-propyl)amino]pyrimidin-4-yl]-6-(4-fluorophenyl)-2,3-dihydro-1H-pyrazolo[1,2-a]pyrazol-5-one] | at least 15% |
| CC[C@@H](N)C(=O)NCCCC[C@@H](NC(C)=O)C(=O)NCc1cccc(C(F)(F)F)c1 [(2R)-2-acetamido-6-[[(2R)-2-aminobutanoyl]amino]-N-[[3-(trifluoromethyl)phenyl]methyl]hexanamide] | at least 15% |
| Cc1ccc(C(C)C)c(OCCN)c1 [2-(2-isopropyl-5-methyl-phenoxy)ethanamine] | at least 15% |
| COc1ccc2c(c1)C(NCc1cccc(N)c1)CCO2 (stereo not shown) [N-[(3-aminophenyl)methyl]-6-methoxy-chroman-4-amine] | at least 15% |
| NCc1ccncc1 [4-pyridylmethanamine] | at least 15% |
| CCC(C)C(N)C(=O)NC(Cc1ccccc1)C(N)=O (stereo not drawn) [2-amino-N-(2-amino-1-benzyl-2-oxo-ethyl)-3-methyl-pentanamide] (H-Ile-Phe-NH2; configuration not given here) | at least 15% |
| Cc1ncc(CN)c(C)c1N [5-(aminomethyl)-2,4-dimethyl-pyridin-3-amine] | at least 15% |

| Structure (SMILES) | improvement of viability of RPE cells treated with retinal compared to untreated cells |
| --- | --- |
| CC(C)(C)c1cc(C(=O)NCCN)cc2c1OCC2(C)C [N-(2-aminoethyl)-7-tert-butyl-3,3-dimethyl-2H-benzofuran-5-carboxamide] | at least 15% |
| CCc1ccc(-c2cc(C(=O)N(CCCN)Cc3cc(OC)c(OC)c(OC)c3)ccn2)cc1 [N-(3-aminopropyl)-2-(4-ethylphenyl)-N-[(3,4,5-trimethoxyphenyl)methyl]pyridine-4-carboxamide] | at least 15% |
| NC1CCCSc2ccccc21 (stereo not shown) [2,3,4,5-tetrahydro-1-benzothiepin-5-amine] | at least 15% |
| C/C(=N/NC(=S)Nc1cccc(C)c1)c1ccc(N)cc1 [1-[(Z)-1-(4-aminophenyl)ethylideneamino]-3-(m-tolyl)thiourea] | at least 15% |
| Nc1cccc2cccc([N+](=O)[O-])c12 [8-nitronaphthalen-1-amine] | at least 15% |
| CCOc1ccc(N)cc1OCC [3,4-diethoxyaniline] | at least 15% |
| C=CCNC(=O)[C@@H](CCCCNC(=O)c1ccc(N)cc1)NC(=O)c1cccs1 [N-[(1R)-1-(allylcarbamoyl)-5-[(4-aminobenzoyl)amino]pentyl]thiophene-2-carboxamide] | at least 15% |
| Nc1ccc(Oc2ccc(Cl)cc2)c(Cl)c1 [3-chloro-4-(4-chlorophenoxy)aniline] | at least 15% |
| CC(C)(c1ccc(OC(=O)c2ccc(N)cc2)cc1)c1ccc(OC(=O)c2ccc(N)cc2)cc1 [[4-[1-[4-(4-aminobenzoyl)oxyphenyl]-1-methyl-ethyl]phenyl] 4-aminobenzoate] | at least 15% |
| CC(=O)c1cccc(-c2cc(C(=O)N(CCCN)Cc3ccc4c(c3)OCCO4)ccn2)c1 [2-(3-acetylphenyl)-N-(3-aminopropyl)-N-(2,3-dihydro-1,4-benzodioxin-6-ylmethyl)pyridine-4-carboxamide] | at least 15% |
| NCCNC(=O)c1cccc2ccccc12 [N-(2-aminoethyl)naphthalene-1-carboxamide] | at least 15% |
| NCc1ccc(CN(Cc2ccccn2)C(=O)c2cncc(-c3cccc4ccccc34)c2)cc1 [N-[[4-(aminomethyl)phenyl]methyl]-5-(1-naphthyl)-N-(2-pyridylmethyl)pyridine-3-carboxamide] | at least 15% |
| Nc1ccc(C(=O)c2ccc(F)cc2)cc1 [(4-aminophenyl)-(4-fluorophenyl)methanone] | at least 15% |
| Nc1ccc(-c2csc(N)n2)cc1 [4-(4-aminophenyl)thiazol-2-amine] | at least 15% |
| NCCCCCN1C(=O)CN(/N=C/c2ccc([N+](=O)[O-])o2)C1=O [3-(5-aminopentyl)-1-[(E)-(5-nitro-2-furyl)methyleneamino]imidazolidine-2,4-dione] | at least 15% |
| Nc1ccc(C(C(=O)Cc2ccc(F)c(F)c2)c2ccccc2)cc1 (stereo not shown) [1-(4-aminophenyl)-3-(3,4-difluorophenyl)-1-phenyl-propan-2-one] | at least 15% |
| Nc1cccc(Oc2ccc3c(c2)C(=O)N(c2cccc4ccccc24)C3=O)c1 [5-(3-aminophenoxy)-2-(1-naphthyl)isoindoline-1,3-dione] | at least 15% |
| Nc1cc(Br)c(S(N)(=O)=O)c(Br)c1 [4-amino-2,6-dibromo-benzenesulfonamide] | at least 15% |
| CC(N)c1cnc(-c2ccccc2)nc1-c1ccccc1 (stereo not shown) [1-(2,4-diphenylpyrimidin-5-yl)ethanamine] | at least 15% |
| CCc1ccc(-c2cc(C(=O)N(Cc3ccc(NC(C)=O)cc3)CC(C)(C)CN)ccn2)cc1 [N-[(4-acetamidophenyl)methyl]-N-(3-amino-2,2-dimethyl-propyl)-2-(4-ethylphenyl)pyridine-4-carboxamide] | at least 15% |
| Nc1ccc(Cl)cc1C(=O)c1ccccc1Cl [(2-amino-5-chloro-phenyl)-(2-chlorophenyl)methanone] | at least 15% |
| NCCCNCc1ccccc1 [N′-benzylpropane-1,3-diamine] | at least 15% |
| Cc1[nH]c2ccc(CN)cc2c1C [(2,3-dimethyl-1H-indol-5-yl)methanamine] | at least 15% |
| CCOC(=O)CNC(=S)Nc1ccccc1N [ethyl 2-[(2-aminophenyl)carbamothioylamino]acetate] | at least 15% |
